This is one part of the list.
system: T1, CTL2-GFP (C. trachomatis L2/434/Bu, GFP-expressing); parameters: species or system HeLa; Intracellular C. trachomatis growth in HeLa cells, bulk GFP fluorescence relative to DMSO; details: bulk GFP, single well; 28.5 h, 10 µM; inhibitor
T1 construct: L2/434/Bu, GFP-expressing

Point of comparison: O=C(Cn1nnc(-c2ccccc2Cl)n1)N/N=C/c1cn(Cc2ccc(Cl)cc2)c2ccccc12 [CBK262333], “% of control remaining” value 85.6364%. Against it:
- O=C(NCC1CCCCC1)C1(Cc2ccc(-c3ccncc3)cc2)CCOCC1 [CBK285564] — lower, 71.1432%
- CSc1cc(-c2cccs2)[nH]c(=O)c1C#N [CBK006350] — higher, 113.51%
- COc1ccc(C(C)C)cc1-c1nccnc1NCC1COC(C)(C)O1 (centres unmarked) [CBK036930] — higher, 193.272%
- COc1ccc(N(Cc2cccnc2)C(=O)c2ccc(-c3ccccc3)[nH]c2=O)cc1 [CBK283089] — lower, 56.1227%
- CCCNC(c1ccccc1)c1ccncc1 (centres unmarked) [CBK028505] — higher, 111.028%
- O=C(NC1CCS(=O)(=O)C1)c1cnc2c(Cl)cccc2c1O (centres unmarked) [CBK304644] — higher, 125.365%
- Cc1cc2c(s1)c1cnn(CC(=O)OC(C)C)c(=O)c1n2C [CBK284247] — higher, 93.9993%
- CN(Cc1cccc(C#N)c1)Cc1nc2c(cnn2C)c(=O)[nH]1 [CBK305973] — higher, 126.342%
- CC(C(=O)N[C@H]1C2CCCCC2[C@@H]1c1ccccc1)N1CCOCC1 (some centres unmarked) [CBK282964] — higher, 123.483%
- CN(CC1(C)COC1)C(=O)C(c1ccc(F)cc1)N(C)C (centres unmarked) [CBK281722] — higher, 98.9553%
- NC(=O)CCC(NC=O)C(=O)O (centres unmarked) [CBK260967] — higher, 116.035%
- N#C/C(=C\c1c[nH]nc1-c1ccccc1)c1nc(-c2cccc([N+](=O)[O-])c2)cs1 [CBK267252] — higher, 143.863%
- CC(C)CN1C(=O)COC[C@@H]1[C@H](O)c1ccc(NC(=O)C2CCCCC2)cc1 [CBK289687] — higher, 144.146%
- Cc1c(C(=O)C2=C(O)C(=O)N(Cc3cccnc3)C2c2ccncc2)cnn1-c1ccccc1 (centres unmarked) [CBK233899] — higher, 127.512%
- CCN1CCN(C(=O)c2ccc3ccccc3n2)CC1 [CBK200249] — higher, 104.227%
- CCCCOc1ccc(Sc2nc(C)cc(C)n2)cc1 [CBK009219] — higher, 107.121%
- Cc1cc(CN2CCN(C(=O)NCCc3ccccn3)CC2)on1 [CBK305637] — higher, 131.924%
- CC(NC(=O)N1CCN(c2cc(C(F)(F)F)ccn2)CC1)c1ccccc1 (centres unmarked) [CBK162350] — higher, 142.364%
- O=C(CSc1nnc(-c2ccccc2O)n1-c1ccccc1)Nc1ccc(N2CCOCC2)cc1 [CBK267874] — higher, 104.908%
- Oc1n[nH]c(-c2ccccc2Cl)c1Cc1c(Cl)cccc1Cl [CBK107935] — higher, 125.392%
- Cc1nc(CN2CCCC(NCc3ccc4ccccc4c3)C2)no1 (centres unmarked) [CBK305160] — higher, 86.8434%
- c1cnc2[nH]c(C3CCCC3)c(CN3CCOCC3)c2c1 [CBK285337] — higher, 129.693%
- Cc1cc(N2CCCC2=O)cc(C)c1S(N)(=O)=O [CBK288458] — higher, 167.656%
- O=C(O)Cn1nnc(-c2ccncc2)n1 [CBK269884] — higher, 116.183%
- COc1ccc(C(=O)OC(C)(C)C)c(-c2cncc(N3CCCCC3CCO)n2)c1 (centres unmarked) [CBK037786] — higher, 170.033%
- Cc1nnc(CSc2ncc(-c3ccc(Cl)cc3)n2Cc2ccccc2)o1 [CBK297154] — higher, 125.901%
- CC(=O)N(C)c1nc(-c2ccccc2C)ccc1C(=O)Nc1cc(C)nn1C [CBK106357] — higher, 150.284%
- COc1ccc(-n2ncc3c(N4CCN(C)CC4)ncnc32)cc1 [CBK265848] — higher, 120.573%
- COc1ccc(NC(=O)C(=O)NCc2ccncc2)cc1 [CBK287723] — higher, 136.317%
- Cn1nnnc1-c1cccc(NC(=O)c2ccc(Oc3ccccc3)cc2)c1 [CBK297872] — lower, 45.4246%
- Cc1nn(CC(=O)NC2CCCCC2)c(=O)c2cc3ccsc3n12 [CBK284080] — higher, 106.924%
- O=C(CSc1nnc(COc2ccccc2)o1)c1cccc([N+](=O)[O-])c1 [CBK267868] — lower, 81.757%
- COc1ccc(CCNC(=O)N2CCC(C(=O)O)CC2)cc1OC [CBK161404] — higher, 133.225%
- CN(C)CCN(Cc1ccccn1)c1ncccn1 [CBK020142] — lower, 66.8053%
- O=C(NCc1cccnc1)N1CCN(CCc2ccccc2)CC1 [CBK158906] — higher, 118.395%
- O=[N+]([O-])c1cccc(-c2ccc(OC3CCNCC3)cc2)c1 [CBK126465T] — lower, 75.3216%
- Cc1nc2c(c(CCC(=O)O)n1)CCCC2 [CBK023157] — higher, 132.601%
- CC1CCc2c(sc3ncnc(OCC(=O)N4CCNC4=O)c23)C1 (centres unmarked) [CBK305775] — higher, 114.862%
- COc1ccc(-c2nc3c(c(=S)[nH]2)CCCC3)cc1 [CBK020440] — lower, 65.9215%
- CN(C)[C@@H]1CN(Cc2cccnc2)C[C@H]1c1cn(C)c2ccccc12 [CBK284875] — higher, 88.91%
- COc1cccc2cc(C(=O)NCCCN3CCN(C)CC3)oc12 [CBK149788] — higher, 113.15%
- Cc1n[nH]c(C)c1Sc1ccccc1/N=C/c1ccc(C(=O)O)cc1 [CBK262055] — higher, 107.237%
- Cc1oc(C2CC2)cc1C(=O)N1CCn2c(nnc2C2CC2)C1 [CBK283687] — higher, 121.801%
- Cc1cc(COc2cc(N3CCCN(Cc4ccc5c(c4)OCO5)CC3)ncn2)no1 [CBK083335T] — higher, 164.076%
- CCOC(=O)CCCNC(=O)N1CCN(Cc2ccccc2)CC1 [CBK155664] — higher, 122.276%
- CCOCCn1cnc2sc(C(=O)Nc3cccc(Cl)c3)c(C)c2c1=O [CBK071854] — lower, 81.8928%
- CCn1cc(-c2cncn2CCOc2ccc(C)cc2)cn1 [CBK281623] — higher, 130.827%
- CCN(CC)CCN(C(=O)Nc1ccc(C(N)=O)cc1)C(C)c1ccc(OC)c(OC)c1 (centres unmarked) [CBK158962] — higher, 88.3424%
- COc1ccc(C)cc1S(=O)(=O)N(C)CC(=O)Nc1cccc(C(C)=O)c1 [CBK268753] — higher, 142.443%
- COCC(=O)NCc1cc2n(n1)CCN(Cc1cccs1)C2 [CBK307085] — higher, 124.74%
- Cc1cc(C2CCCCCN2S(=O)(=O)c2ccc3[nH]c(=O)[nH]c(=O)c3c2)on1 (centres unmarked) [CBK286405] — higher, 128.122%
- COc1cc(-c2cc(C(=O)O)c3c(-c4ccc(C)cc4)n[nH]c3n2)ccc1O [CBK287268] — higher, 159.608%
- NC(=O)C1CCN(Cc2cc3c(cc2[N+](=O)[O-])OCO3)CC1 [CBK261885] — higher, 99.3439%
- Cc1ccc(C(=O)NC(CC(C)C)c2nnc3n2CCNCC3)c(F)c1 (centres unmarked) [CBK306817] — higher, 144.813%
- CCNC(=O)O[C@@H]1CO[C@H]2[C@@H]1OC[C@@H]2NC(=O)c1ccc(C)cc1 [CBK289472] — higher, 114.424%
- Cc1cn([C@H]2C[C@@H](O)[C@@H](CI)O2)c(=O)[nH]c1=O [CBK201197] — higher, 160.055%
- COCC(C)NCc1cc(-c2ccc(Cl)cc2)c[nH]c1=O (centres unmarked) [CBK284726] — higher, 139.926%
- CC(C)(C)C(=O)NCCn1nc(-c2cccs2)oc1=O [CBK282344] — higher, 105.306%
- Cc1noc(C)c1CC(=O)N(C)CCN1CCCCC1 [CBK281855] — higher, 129.266%
- O=C(O)c1cccc2c1C(=O)N(Cc1ccccc1F)C2 [CBK291172] — higher, 147.636%
- COc1ccccc1-c1ncc(OCCN2CCOCC2)nc1N [CBK145072] — higher, 120.247%
- Cc1ccccc1-c1nc2ccc(NC(=O)CCC(=O)O)cc2o1 [CBK269904] — higher, 122.126%
- Cc1nnc(Sc2cc(C(F)(F)F)ccn2)s1 [CBK115215] — higher, 106.581%
- Cc1nn(CC(C)C)c(C)c1CCC(=O)N(C)Cc1c(C)nn(-c2ccccc2)c1C [CBK295301] — lower, 83.7657%
- O=C(Nc1ccc(Cl)cc1)N1CCN(c2ccccc2)CC1 [CBK155188] — higher, 147.528%
- CCOC(=O)C1(C2CCCCC2)CCN(C(=O)CN2C(=O)CSC2=O)CC1 [CBK160993] — higher, 93.4088%
- COc1ccc(C(C)C)cc1-c1cncc(N[C@@H](C)c2ccccc2)n1 [CBK065504] — higher, 95.6776%
- N#Cc1ccc(CN2CCCN(S(=O)(=O)c3ccc(C(=O)c4ccccc4)cc3)CC2)cc1 [CBK062962] — higher, 99.2503%
- Cc1nc(N2CCCC2)ncc1-c1cc(=O)[nH]c(N2CCCCC2)n1 [CBK288226] — higher, 127.413%
- Cc1noc(C)c1S(=O)(=O)Nc1cc(C(F)(F)F)ccc1N1CCOCC1 [CBK062545] — higher, 118.356%
- O=C1Cc2c(ccc3ccccc23)C2(CCN(CCCC(F)(F)F)CC2)N1 [CBK039912] — higher, 176.383%
- CO[C@H]1CC[C@H](C(=O)NC(c2ccccc2)c2nccn2C)CC1 (some centres unmarked) [CBK283852] — higher, 108.429%
- CC(C)(C)c1ccc(S(=O)(=O)N2CCCCC2CCO)cc1[N+](=O)[O-] (centres unmarked) [CBK200067] — higher, 102.61%
- COC(=O)C(N)c1c[nH]c2ccccc12 (centres unmarked) [CBK089840] — higher, 119.165%
- CN1CCN(C(=O)C2CCCN(S(=O)(=O)c3ccc(Br)cc3)C2)CC1 (centres unmarked) [CBK269006] — higher, 99.0217%
- Fc1ccc(CCN2CCC(Oc3cncc(OCC4COc5ccccc5O4)n3)C2)cc1 (centres unmarked) [CBK084383] — higher, 100.615%
- CCNC(=O)N1CC2(CCN(CCCC#N)CC2)c2ccccc21 [CBK136970] — higher, 112.605%
- CN1CCCc2c1nc1ccc(Br)cc1c2N [CBK009692G] — higher, 102.461%
- COc1cc(CNn2c(C)nnc2S)cc(Br)c1OCC(=O)NC(C)(C)C [CBK266575] — higher, 93.0723%
